Experimental data reported in article PMC6627698, “Redesigning Arenicin-1, an Antimicrobial Peptide from the Marine Polychaeta Arenicola marina, by Strand Rearrangement or Branching, Substitution of Specific Residues, and Backbone Linearization or Cyclization” (Marine Drugs, 2019).
Residues, ends and D or L forms follow the SMILES beside them.

Assays:
Format in all cases: cell-based
human red blood cells = conditions: for SI2 improvement ratio in comparison with AR: ratio of SI2 of the peptide to SI2 of native AR; for SI3 improvement ratio in comparison with AR: ratio of SI3 of the peptide to SI3 of native AR; for SI3 assessment HC15/G-MIC: selectivity index: HC15 / G-MIC; for SI2 assessment HC50/G-MIC: selectivity index: HC50 / G-MIC
[1] = test system: set of Gram-negative and Gram-positive bacteria, including drug-resistant clinical isolates; conditions: ratio of G-MIC of native AR to G-MIC of the peptide; * = higher overall activity than AR
Protocol: To obtain a global assessment of the effect on antimicrobial activity, the geometric mean of the MIC (G-MIC) was calculated, and from this, the overall improvement or impoverishment with respect to arenicin-1. In general, inverting the symmetry or decreasing the charge had detrimental effects.
The overall activity against a set of tested bacterial strains was determined by way of the commonly used geometric mean of measured MIC values. […] At the same time, the geometric mean can still discriminate antimicrobial agents showing minor variations in activity; in other words, it has a better “resolution” than the median MIC (MIC50). Some mathematical basics for choosing the geometric mean for antimicrobial activity comparison are further discussed in the Supplementary Chapter S3.

[2] = test system: human erythroleukemia K-562 cells; conditions: for SI1 improvement ratio in comparison with AR: ratio of SI1 of the peptide to SI1 of native AR; for SI1 assessment IC50/G-MIC: selectivity index: K-562 IC50 / G-MIC
Protocol: The standard MTT ((3-(4,5-Dimethylthiazol-2-yl)-2,5-diphenyltetrazolium bromide) test was used for the examination of the cytotoxic activity of AMPs towards human erithroleukemia cells K-562. The cells were purchased from Biolot (Saint Petersburg, Russia) and were grown in RPMI 1640 medium (Biolot, Saint Petersburg, Russia) supplemented with glutamine and 10% FCS. Before the experiment, the culturing medium was replaced with serum-free RPMI 1640. Serial dilutions of the peptides in RPMI were plated in sterile 96-well microplates, and the target cells were dispensed to the microplates (10^5 cells/well in RPMI 1640). The plates were incubated for 24 h at 37 °C under 5% CO2. Cell-free media and cells incubated without peptides served as controls. Four hours before the incubation ended, MTT in PBS (5 mg/mL) was added to each well. After the incubation was stopped by adding isopropanol/ 0.04 M HCl, the optical density was measured at 540 nm, subtracting the background absorbance at 690 nm. Toxicity was determined by nonlinear regression analysis of the corresponding dose–response curves using the Sigma Plot 11 program to calculate the IC50 values (the concentration of the test substance that reduced the OD540 capacity by 50%).

SMILES	SI2 improvement ratio in comparison with AR (human red blood cells)	SI3 improvement ratio in comparison with AR (human red blood cells)	SI3 assessment HC15/G-MIC (human red blood cells)	SI2 assessment HC50/G-MIC (human red blood cells)	G-MIC improvement ratio in comparison with AR [1]	SI1 improvement ratio in comparison with AR [2]	SI1 assessment IC50/G-MIC [2]
CC(C)C[C@@H]1NC(=O)[C@H](C(C)C)NC(=O)CNC(=O)[C@H](CCCNC(=N)N)NC(=O)[C@H](C(C)C)NC(=O)[C@H](CC(C)C)NC(=O)[C@H](C(C)C)NC(=O)[C@H](CCCNC(=N)N)NC(=O)[C@H](Cc2ccc(O)cc2)NC(=O)[C@H](CCCNC(=N)N)NC(=O)[C@H](CCCNC(=N)N)NC(=O)[C@@H](NC(=O)[C@@H](N)Cc2c[nH]c3ccccc23)CSSC[C@@H](C(=O)N[C@@H](Cc2c[nH]c3ccccc23)C(=O)O)NC(=O)[C@H](CCCNC(=N)N)NC(=O)[C@H](CCCNC(=N)N)NC(=O)[C@H](Cc2ccc(O)cc2)NC(=O)[C@H](CCCNC(=N)N)NC(=O)[C@H](C(C)C)NC1=O [ARs-C] (HELM PEPTIDE1{W.C.R.R.Y.R.V.L.V.R.G.V.L.V.R.Y.R.R.C.W}$PEPTIDE1,PEPTIDE1,2:R3-19:R3$$$V2.0; N-terminus assumed)	0.8	1.0	3.7	20.6	0.8	0.5	3.6
CC(C)[C@@H]1NC(=O)[C@H](CCCNC(=N)N)NC(=O)[C@H](C(C)C)NC(=O)[C@H](Cc2ccc(O)cc2)NC(=O)[C@H](C)NC(=O)[C@H](Cc2ccc(O)cc2)NC(=O)[C@H](C(C)C)NC(=O)[C@@H](NC(=O)[C@H](Cc2c[nH]c3ccccc23)NC(=O)[C@@H](N)CCCNC(=N)N)CSSC[C@H](NC(=O)[C@H](Cc2c[nH]c3ccccc23)NC(=O)[C@@H](N)CCCNC(=N)N)C(=O)N[C@@H](C(C)C)C(=O)N[C@@H](Cc2ccc(O)cc2)C(=O)N[C@@H](C)C(=O)N[C@@H](Cc2ccc(O)cc2)C(=O)N[C@@H](C(C)C)C(=O)N[C@@H](CCCNC(=N)N)C(=O)N[C@@H](C(C)C)C(=O)N[C@H](C(=O)N[C@@H](CN)C(N)=O)CCCNC1=O [ARs-N-B] (HELM PEPTIDE1{R.W.C.V.Y.A.Y.V.R.V.[Orn].[NC[C@H](N[*:1])C(=O)[*:2]].[am]}|PEPTIDE2{R.W.C.V.Y.A.Y.V.R.V}$PEPTIDE1,PEPTIDE2,3:R3-3:R3|PEPTIDE1,PEPTIDE2,11:R3-10:R2$$$V2.0)	>0.6	0.6	2.1	>13.7	0.5	0.9	6.0
CC(C)[C@@H]1NC(=O)CNC(=O)[C@H](CCCNC(=N)N)NC(=O)[C@H](C(C)C)NC(=O)[C@H](CCCNC(=N)N)NC(=O)[C@H](C(C)C)NC(=O)[C@H](Cc2ccc(O)cc2)NC(=O)[C@H](C)NC(=O)[C@H](Cc2ccc(O)cc2)NC(=O)[C@H](C(C)C)NC(=O)[C@@H](NC(=O)[C@H](Cc2c[nH]c3ccccc23)NC(=O)[C@H](CCCNC(=N)N)NC(=O)[C@@H](N)CCCNC(=N)N)CSSC[C@@H](C(=O)N[C@@H](Cc2c[nH]c3ccccc23)C(=O)O)NC(=O)[C@H](C(C)C)NC(=O)[C@H](Cc2ccc(O)cc2)NC(=O)[C@H](C)NC(=O)[C@H](Cc2ccc(O)cc2)NC(=O)[C@H](C(C)C)NC(=O)[C@H](CCCNC(=N)N)NC1=O [ARs-N] (HELM PEPTIDE1{R.R.W.C.V.Y.A.Y.V.R.V.R.G.V.R.V.Y.A.Y.V.C.W}$PEPTIDE1,PEPTIDE1,4:R3-21:R3$$$V2.0; N-terminus assumed)		≤0.2	≤0.9		≤0.1	≤0.1	≤0.7
